In US9765295B2, “Composition for culturing sanal and sanal culturing method using the same” (Samsung Electronics Co., Ltd., priority 2014, dated 2017):

Assay: Assaying amino acid components in primo fluid, interstitial fluid, lymphatic fluid and blood plasma (HPLC and nano LC)
Design: species or system rat
Conditions: endogenous level; for Amino acid concentration in Blood Plasma: rat blood plasma; for Amino acid concentration in Interstitial Fluid: rat interstitial fluid; for Amino acid concentration in Lymphatic Fluid: rat lymphatic fluid; for Amino acid concentration in Primo Fluid (n = 5): rat primo fluid

Structure (SMILES): N[C@@H](Cc1ccccc1)C(=O)O [L-Phenylalanine]
- Amino acid concentration in Blood Plasma: 11.6 mg/L
- Amino acid concentration in Interstitial Fluid: 4.38 mg/L
- Amino acid concentration in Lymphatic Fluid: 32.7854 mg/L
- Amino acid concentration in Primo Fluid (n = 5): 122.2 ± 8.91 mg/L

Structure (SMILES): O=C(O)[C@@H]1CCCN1 [L-Proline]
- Amino acid concentration in Blood Plasma: 18.8 mg/L
- Amino acid concentration in Interstitial Fluid: 4.149 mg/L
- Amino acid concentration in Lymphatic Fluid: 31.9353 mg/L
- Amino acid concentration in Primo Fluid (n = 5): 53.5 ± 1.51 mg/L

Structure (SMILES): NCCCC[C@H](N)C(=O)O [L-Lysine]
- Amino acid concentration in Blood Plasma: 58.9 mg/L
- Amino acid concentration in Interstitial Fluid: 20.231 mg/L
- Amino acid concentration in Lymphatic Fluid: 73.6931 mg/L
- Amino acid concentration in Primo Fluid (n = 5): 217.8 ± 26.6 mg/L

Structure (SMILES): CSCC[C@H](N)C(=O)O [L-Methionine]
- Amino acid concentration in Blood Plasma: 9 mg/L
- Amino acid concentration in Interstitial Fluid: 2.809 mg/L
- Amino acid concentration in Lymphatic Fluid: 15.4886 mg/L
- Amino acid concentration in Primo Fluid (n = 5): 49.6 ± 1.23 mg/L

Structure (SMILES): C[C@H](N)C(=O)O [L-Alanine]
- Amino acid concentration in Blood Plasma: 37.4 mg/L
- Amino acid concentration in Interstitial Fluid: 12.076 mg/L
- Amino acid concentration in Lymphatic Fluid: 70.3837 mg/L
- Amino acid concentration in Primo Fluid (n = 5): 116.0 ± 5.17 mg/L

Structure (SMILES): N[C@@H](CC(=O)O)C(=O)O [L-Aspartic acid]
- Amino acid concentration in Blood Plasma: 3.6 mg/L
- Amino acid concentration in Interstitial Fluid: 1.13 mg/L
- Amino acid concentration in Lymphatic Fluid: 171.6287 mg/L
- Amino acid concentration in Primo Fluid (n = 5): 68.3 ± 4.34 mg/L

Structure (SMILES): O=C(O)[C@@H]1C[C@@H](O)CN1 [L-Hydroxyproline]
- Amino acid concentration in Blood Plasma: 7.2 mg/L
- Amino acid concentration in Interstitial Fluid: 1.021 mg/L
- Amino acid concentration in Lymphatic Fluid: 3.273 mg/L
- Amino acid concentration in Primo Fluid (n = 5): 2.17 ± 0.50 mg/L

Structure (SMILES): N[C@@H](CCC(=O)O)C(=O)O [L-Glutamic acid]
- Amino acid concentration in Blood Plasma: 21.6 mg/L
- Amino acid concentration in Interstitial Fluid: 10.382 mg/L
- Amino acid concentration in Lymphatic Fluid: 250.8982 mg/L
- Amino acid concentration in Primo Fluid (n = 5): 157.9 ± 9.63 mg/L

Structure (SMILES): N[C@@H](Cc1c[nH]cn1)C(=O)O [L-Histidine]
- Amino acid concentration in Blood Plasma: 10.7 mg/L
- Amino acid concentration in Interstitial Fluid: 3.105 mg/L
- Amino acid concentration in Lymphatic Fluid: 15.9813 mg/L
- Amino acid concentration in Primo Fluid (n = 5): 60.5 ± 9.03 mg/L

Structure (SMILES): NC(=O)C[C@H](N)C(=O)O [L-Asparagine]
- Amino acid concentration in Blood Plasma: 7.8 mg/L
- Amino acid concentration in Interstitial Fluid: 3.849 mg/L
- Amino acid concentration in Lymphatic Fluid: 27.2493 mg/L
- Amino acid concentration in Primo Fluid (n = 5): 63.1 ± 1.80 mg/L

Structure (SMILES): N=C(N)NCCC[C@H](N)C(=O)O [L-Arginine]
- Amino acid concentration in Blood Plasma: 35.7 mg/L
- Amino acid concentration in Interstitial Fluid: 10.885 mg/L
- Amino acid concentration in Lymphatic Fluid: 44.426 mg/L
- Amino acid concentration in Primo Fluid (n = 5): 105.6 ± 4.13 mg/L

Structure (SMILES): CC(C)[C@H](N)C(=O)O [L-Valine]
- Amino acid concentration in Blood Plasma: 24 mg/L
- Amino acid concentration in Interstitial Fluid: 6.631 mg/L
- Amino acid concentration in Lymphatic Fluid: 35.7542 mg/L
- Amino acid concentration in Primo Fluid (n = 5): 105.0 ± 4.48 mg/L

Structure (SMILES): N[C@@H](CO)C(=O)O [L-Serine]
- Amino acid concentration in Blood Plasma: 17.9 mg/L
- Amino acid concentration in Interstitial Fluid: 7.833 mg/L
- Amino acid concentration in Lymphatic Fluid: 40.577 mg/L
- Amino acid concentration in Primo Fluid (n = 5): 96.1 ± 3.99 mg/L

Structure (SMILES): N[C@@H](Cc1c[nH]c2ccccc12)C(=O)O [L-Tryptophane]
- Amino acid concentration in Blood Plasma: 25.1 mg/L
- Amino acid concentration in Interstitial Fluid: 1.659 mg/L
- Amino acid concentration in Lymphatic Fluid: 3.1684 mg/L
- Amino acid concentration in Primo Fluid (n = 5): 13.5 ± 2.17 mg/L

Structure (SMILES): C[C@@H](O)[C@H](N)C(=O)O [L-Threonine]
- Amino acid concentration in Blood Plasma: 32.5 mg/L
- Amino acid concentration in Interstitial Fluid: 8.195 mg/L
- Amino acid concentration in Lymphatic Fluid: 36.339 mg/L
- Amino acid concentration in Primo Fluid (n = 5): 80.4 ± 1.32 mg/L

Structure (SMILES): NCC(=O)O [Glycine]
- Amino acid concentration in Blood Plasma: 1.7 mg/L
- Amino acid concentration in Interstitial Fluid: 7.85 mg/L
- Amino acid concentration in Lymphatic Fluid: 79.963 mg/L
- Amino acid concentration in Primo Fluid (n = 5): 123.8 ± 2.57 mg/L

Structure (SMILES): CC[C@H](C)[C@H](N)C(=O)O [L-Isoleucine]
- Amino acid concentration in Blood Plasma: 13.1 mg/L
- Amino acid concentration in Interstitial Fluid: 4.337 mg/L
- Amino acid concentration in Lymphatic Fluid: 23.4005 mg/L
- Amino acid concentration in Primo Fluid (n = 5): 80.3 ± 5.14 mg/L

Structure (SMILES): N[C@@H](Cc1ccc(O)cc1)C(=O)O [L-Tyrisine]
- Amino acid concentration in Blood Plasma: 14.9 mg/L
- Amino acid concentration in Interstitial Fluid: 6.112 mg/L
- Amino acid concentration in Lymphatic Fluid: 284.262 mg/L
- Amino acid concentration in Primo Fluid (n = 5): 104.6 ± 7.05 mg/L
